Measurements: paper PMC4942575
For at least one entry, the source does not settle the construct or the ends of the probe. For some assays here: No signal at the amounts used counts as a negative. For some assays here: At least one verdict was read from the data and is not stated in words by the source.

Protein sequences, listed by entry. Tags and fused reporters are not part of them. Lines headed by an entry give the natural chain unless they say otherwise; changes in a name come on top.
UniProt A0MES8: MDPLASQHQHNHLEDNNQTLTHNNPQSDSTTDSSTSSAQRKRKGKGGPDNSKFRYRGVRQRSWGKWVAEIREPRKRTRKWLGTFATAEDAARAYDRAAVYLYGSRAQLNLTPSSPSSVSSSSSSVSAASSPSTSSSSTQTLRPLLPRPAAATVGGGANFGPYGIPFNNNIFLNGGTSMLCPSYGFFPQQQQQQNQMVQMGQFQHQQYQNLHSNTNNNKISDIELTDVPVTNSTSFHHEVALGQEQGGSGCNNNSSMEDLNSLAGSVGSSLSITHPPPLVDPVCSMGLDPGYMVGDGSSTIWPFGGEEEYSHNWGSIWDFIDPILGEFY

Columns and labels:
MBP = assay: EMSA; conditions: negative control; 10 ul: 2 ug protein, 200 fmol biotin probe, 1 ul poly(dI/dC), 1x LightShift binding buffer, 5% glycerol; room temperature 20 min; 6% native PAGE; pH and salt not given; recombinant protein; label: 3' biotin
[1] = target: MBP-ABI4 WT phosphorylated by MPK3/MPK6 (Arabidopsis thaliana) (UniProt A0MES8); assay: EMSA; conditions: pre-incubated with activated MPK3+MPK6 and ATP, binding increased vs unphosphorylated; 10 ul: 2 ug protein, 200 fmol biotin probe, 1 ul poly(dI/dC), 1x LightShift binding buffer, 5% glycerol; room temperature 20 min; 6% native PAGE; pH and salt not given; recombinant protein; protein details: MBP (pETMALc-H); label: 3' biotin

“GACTAGAGACTGCCACATAAGAATAGTAAAGTTA (double strand) [LHCB promoter probe]”: no binding (MBP); binds [1].
